Measurements reported in PubChem BioAssay AID1224828 (NIAID, 2016).

Screen: 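Find genes required for NF-kappaB p65 moving into the nucleus after LPS in mouse macrophages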 (primary screen)
Cell system: mouse RAW264.7 G9 macrophage reporter cells (GFP-p65, Tnf promoter-mCherry)
Reagents: siRNA pool against mouse genes, 100 nM
Timing: 2 days siRNA transfection, then 40 min LPS before fixation
Treatment: LPS (Salmonella minnesota R595) at 10 ng/ml
Measurement: 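Imaged p65 nuclear translocation ratio, normalised to the plate median, converted to robust z-scores and averaged across two replicates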
Scale: p65 translocation robust z-score: higher = more nuclear NF-kappaB p65 after LPS than the plate median; nuclear/cytoplasmic p65 ratio: higher = more nuclear NF-kappaB p65
Hit rule: 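Called active when z exceeds 3.3 or falls under -1.56 (median of Tlr4 controls), giving activity score of at least 50; no calls for control wells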
Meaning of the calls: active = hit (p65 shift raised or lowered); inactive = no clear change
Shown is one part, drawn at random, of about 17,000 reagents. 762 of them (4.5%) were called active. 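Active calls include both raised and lowered p65 entry, mostly lowered; wells with fewer than 50 cells lack a z-score.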 Raw values vary from plate to plate and are shown uncorrected.

Dscam (DS cell adhesion molecule)
- nuclear/cytoplasmic p65 ratio, rep 1: 1.48
- nuclear/cytoplasmic p65 ratio, rep 2: 1.38
- low cell count flag: fewer than 50 cells per well; well left out of scoring
- Call: inactive

Il13ra1 (interleukin 13 receptor, alpha 1)
- p65 translocation robust z-score: -0.58
- nuclear/cytoplasmic p65 ratio, rep 1: 1.35
- nuclear/cytoplasmic p65 ratio, rep 2: 1.31
- low cell count flag: enough cells to score
- Call: inactive

Trappc12 (trafficking protein particle complex 12)
- p65 translocation robust z-score: 0.06
- nuclear/cytoplasmic p65 ratio, rep 1: 1.66
- nuclear/cytoplasmic p65 ratio, rep 2: 1.47
- low cell count flag: enough cells to score
- Call: inactive

Qser1 (glutamine and serine rich 1)
- p65 translocation robust z-score: -1.41
- nuclear/cytoplasmic p65 ratio, rep 1: 1.39
- nuclear/cytoplasmic p65 ratio, rep 2: 1.42
- low cell count flag: enough cells to score
- Call: inactive

Pear1 (platelet endothelial aggregation receptor 1)
- nuclear/cytoplasmic p65 ratio, rep 1: 1.73
- nuclear/cytoplasmic p65 ratio, rep 2: 1.17
- low cell count flag: fewer than 50 cells per well; well left out of scoring
- Call: inactive

B4galt3
- p65 translocation robust z-score: 0.13
- nuclear/cytoplasmic p65 ratio, rep 1: 1.59
- nuclear/cytoplasmic p65 ratio, rep 2: 1.87
- low cell count flag: enough cells to score
- Call: inactive

4930590J08Rik (RIKEN cDNA 4930590J08 gene)
- nuclear/cytoplasmic p65 ratio, rep 1: 1.45
- nuclear/cytoplasmic p65 ratio, rep 2: 1.34
- low cell count flag: fewer than 50 cells per well; well left out of scoring
- Call: inactive

Niban1 (niban apoptosis regulator 1)
- p65 translocation robust z-score: -0.08
- nuclear/cytoplasmic p65 ratio, rep 1: 1.68
- nuclear/cytoplasmic p65 ratio, rep 2: 1.54
- low cell count flag: enough cells to score
- Call: inactive

Ap1g1 (adaptor protein complex AP-1, gamma 1 subunit)
- p65 translocation robust z-score: -0.01
- nuclear/cytoplasmic p65 ratio, rep 1: 1.47
- nuclear/cytoplasmic p65 ratio, rep 2: 1.82
- low cell count flag: enough cells to score
- Call: inactive

Trappc2l (trafficking protein particle complex 2L)
- nuclear/cytoplasmic p65 ratio, rep 1: 1.29
- nuclear/cytoplasmic p65 ratio, rep 2: 1.15
- low cell count flag: fewer than 50 cells per well; well left out of scoring
- Call: inactive

BC024139 (cDNA sequence BC024139)
- p65 translocation robust z-score: 0.28
- nuclear/cytoplasmic p65 ratio, rep 1: 1.31
- nuclear/cytoplasmic p65 ratio, rep 2: 1.89
- low cell count flag: enough cells to score
- Call: inactive

Rad17 (RAD17 checkpoint clamp loader component)
- p65 translocation robust z-score: 1.61
- nuclear/cytoplasmic p65 ratio, rep 1: 1.7
- nuclear/cytoplasmic p65 ratio, rep 2: 1.78
- low cell count flag: enough cells to score
- Call: inactive

Psme3
- nuclear/cytoplasmic p65 ratio, rep 1: 1.25
- nuclear/cytoplasmic p65 ratio, rep 2: 1.21
- low cell count flag: fewer than 50 cells per well; well left out of scoring
- Call: inactive

Or14j2 (olfactory receptor family 14 subfamily J member 2)
- nuclear/cytoplasmic p65 ratio, rep 1: 1.55
- nuclear/cytoplasmic p65 ratio, rep 2: 1.3
- low cell count flag: fewer than 50 cells per well; well left out of scoring
- Call: inactive

Eprs1 (glutamyl-prolyl-tRNA synthetase 1)
- p65 translocation robust z-score: -1.57
- nuclear/cytoplasmic p65 ratio, rep 1: 1.42
- nuclear/cytoplasmic p65 ratio, rep 2: 1.16
- low cell count flag: enough cells to score
- Call: active

Zfp384 (zinc finger protein 384)
- p65 translocation robust z-score: -0.11
- nuclear/cytoplasmic p65 ratio, rep 1: 1.46
- nuclear/cytoplasmic p65 ratio, rep 2: 1.46
- low cell count flag: enough cells to score
- Call: inactive

Trim33 (tripartite motif-containing 33)
- p65 translocation robust z-score: 0.52
- nuclear/cytoplasmic p65 ratio, rep 1: 1.72
- nuclear/cytoplasmic p65 ratio, rep 2: 1.45
- low cell count flag: enough cells to score
- Call: inactive

Marveld1 (MARVEL (membrane-associating) domain containing 1)
- p65 translocation robust z-score: 0.26
- nuclear/cytoplasmic p65 ratio, rep 1: 1.87
- nuclear/cytoplasmic p65 ratio, rep 2: 1.59
- low cell count flag: enough cells to score
- Call: inactive

Trip10 (thyroid hormone receptor interactor 10)
- p65 translocation robust z-score: 0.6
- nuclear/cytoplasmic p65 ratio, rep 1: 1.56
- nuclear/cytoplasmic p65 ratio, rep 2: 1.62
- low cell count flag: enough cells to score
- Call: inactive

Cyp2c37 (cytochrome P450, family 2. subfamily c, polypeptide 37)
- p65 translocation robust z-score: -1.44
- nuclear/cytoplasmic p65 ratio, rep 1: 1.3
- nuclear/cytoplasmic p65 ratio, rep 2: 1.17
- low cell count flag: enough cells to score
- Call: inactive

Bloc1s4
- p65 translocation robust z-score: 0.07
- nuclear/cytoplasmic p65 ratio, rep 1: 1.74
- nuclear/cytoplasmic p65 ratio, rep 2: 1.65
- low cell count flag: enough cells to score
- Call: inactive
